## Primary screen of a compound library

The values are deposited in ChEMBL (CHEMBL3988442, “University of Dundee, Small-Polar-MMV Screening Library” (2021)).

A: 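Phenotypic screen: M. tuberculosis growth, glucose 7H9 medium, 3 days; the read-out is not stated. Compounds at 500 µM. Direction is inferred from retests: higher values go with more growth inhibition. Of about 18,000 compounds tested this way, about 1,400 (7.9%) reached 50% or more in at least one test.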
B: 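Whole-cell growth test on Mycobacterium tuberculosis, read after 4 days in a medium based on cholesterol and the lipid DPPC; the read-out is not stated. Concentration: 500 µM. Direction is inferred from retests: higher values go with more growth inhibition. Size under these conditions: about 18,000 compounds, about 900 of them at 50% or above in at least one test.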

The filed quantity is “Percent Effect” (%).
How 0% and 100% were set is not recorded. Most values in the screen are low, and negative values occur.
This is an unselected part of the compounds tested.

{"smiles": "CC(C)c1ccc(NC(=O)CN)cc1", "A": 54.67, "B": 60.16}
{"smiles": "CC(=O)N1CCN(C2CC(N)C2)CC1", "stereo": "stereo not shown", "A": -7.725, "B": -13.52}
{"smiles": "O=C(c1ccc2cccc(F)c2n1)N1CCSCC1", "A": -8.097, "B": -6.497}
{"smiles": "COC(C)C(=O)NCc1cnc(C)s1", "stereo": "stereo not shown", "A": 14.43, "B": 4.622}
{"smiles": "Cc1ccc(C(=O)NCC2(C)CCOCC2)cn1", "A": 30.3, "B": 10.9}
{"smiles": "CCNC(=O)C(C)Sc1nc(N)c2ccsc2n1", "stereo": "stereo not shown", "A": 32.13, "B": 11.7}
{"smiles": "N[C@@H]1C[C@H]1c1ccc2c(c1)OCCO2", "A": 36.88, "B": 50.13}
{"smiles": "CCc1noc(C)c1C(=O)NC(C)c1ccncc1", "stereo": "stereo not shown", "A": 5.231, "B": 10.12}
{"smiles": "COc1ccc(-c2[nH][nH]c(=O)c2CCN)cc1", "A": -3.114, "B": -3.08}
{"smiles": "CC(c1ccc(F)cc1)N(C)C(=O)CCCN", "stereo": "stereo not shown", "A": 20.79, "B": 9.783}
{"smiles": "CC(C)N(CC(N)=O)CC(=O)Nc1ccc(Cl)cc1F", "A": 17.71, "B": 27.72}
{"smiles": "C[C@@H]1CNC[C@H]1C(N)=O", "A": 3.385, "B": -16.92}
{"smiles": "CCOc1ncc(C(=O)NCC(C)(O)C(C)C)cc1Cl", "stereo": "stereo not shown", "A": 70.99, "B": 79.73}
{"smiles": "Cc1ccnc(NC(=O)C2CCNCC2)c1", "A": 16.01, "B": 3.073}
{"smiles": "CCN(CC)CC(N)=O", "A": 6.362, "B": 4.459}
{"smiles": "CCN1CCN(Cc2ccc(OC)cc2OC)CC1", "A": 15.24, "B": 19.99}
{"smiles": "N#Cc1cc(CN2CCOCC2)c[nH]c1=O", "A": 3.285, "B": 7.524}
{"smiles": "NCc1ccccc1-n1cccn1", "A": 64.85, "B": 15.04}
{"smiles": "OCC1(O)CCCN(c2ccnc3ccc(Cl)cc23)C1", "stereo": "stereo not shown", "A": 4.797, "B": -6.56}
{"smiles": "Cc1cccc(CS(=O)(=O)CCS(C)(=O)=O)c1", "A": 8.487, "B": 11.76}
{"smiles": "Cc1cc(C2CCCN2C(=O)CCS(C)(=O)=O)on1", "stereo": "stereo not shown", "A": 9.888, "B": -1.305}
{"smiles": "COCCn1cnnc1C(C)NC(=O)c1nc(C)c[nH]1", "stereo": "stereo not shown", "A": 10.42, "B": 12.33}
{"smiles": "Cc1nccc(C(C)N)n1", "stereo": "stereo not shown", "A": 6.857, "B": 0.4017}
{"smiles": "O=C(c1cccc(F)c1Cl)N1CCCC(CO)C1", "stereo": "stereo not shown", "A": 33.5, "B": 29.01}
{"smiles": "CS(=O)(=O)CCN1CCN(c2ccc(O)cc2)CC1", "A": 12.44, "B": 14.2}
{"smiles": "CC(=O)N(C)c1ccccc1C(=O)NC1CCCCC1", "A": 9.701, "B": 16.36}
{"smiles": "COc1ccc(Nc2nnc(SC(C)C(N)=O)s2)cc1", "stereo": "stereo not shown", "A": 3.28, "B": -3.374}
{"smiles": "CC(Sc1nc2ncccn2n1)C(=O)NC1CC1", "stereo": "stereo not shown", "A": -2.022, "B": -9.47}
{"smiles": "CC(C)Cc1cc(C(=O)N2CC=CC2CO)on1", "stereo": "stereo not shown", "A": 32.91, "B": -4.051}
{"smiles": "O=C(Nc1ccccc1)C1CCN(C(=O)C2CC2)CC1", "A": 38.35, "B": 14.66}
{"smiles": "Cc1ncccc1CN(C)Cc1nccn1C", "A": -2.358, "B": -13.11}
{"smiles": "CC(C(N)=O)S(=O)(=O)Cc1ccccc1C(F)(F)F", "stereo": "stereo not shown", "A": 20.6, "B": -8.284}
{"smiles": "CN1CCN(CC(O)CN(C)Cc2ccncc2)CC1", "stereo": "stereo not shown", "A": 4.806, "B": -3.618}
{"smiles": "Cc1n[nH]c(CN2CCC[C@H]2c2nc(C(C)C)no2)n1", "A": 4.263, "B": 14.45}
{"smiles": "C[C@@H]1CCNC[C@@H]1N", "A": 9.145, "B": -6.941}

Some entries from above, unchanged:

Result for COc1ccc(Nc2nnc(SC(C)C(N)=O)s2)cc1 (stereo not shown) was A: 3.28%; B: -3.374%.
Result for O=C(Nc1ccccc1)C1CCN(C(=O)C2CC2)CC1 was A: 38.35%; B: 14.66%.